## Results of single-concentration screens

Source: ChEMBL document CHEMBL3988442, “University of Dundee, Small-Polar-MMV Screening Library” (2021).

Each number is a percent effect as filed. The record does not define 0% and 100%; most values in the screen are far below 50% and negative numbers occur (in some assays of this library far below -100). The compounds are a random part of those screened. Two or more numbers in one place are separate tests of the same structure; such repeats can differ widely.

T. brucei: 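Whole-parasite assay of Trypanosoma brucei over 72 hours; the read-out is not stated. Tested at 30 µM. Higher reads as stronger inhibition (inferred: compounds with an IC50 in retests scored well above the rest). Values scatter widely below zero; nearly all retest evidence comes from the higher of the two concentrations used. Of about 64,000 compounds tested this way, about 940 (1.5%) reached 50% or more in at least one test.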
Leishmania in macrophages: 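Cell assay of Leishmania donovani living inside macrophages; the read-out is not stated. Concentration: 30 µM. Higher reads as stronger inhibition (inferred: compounds with an IC50 in retests scored well above the rest). Of about 69,000 compounds tested this way, about 1,000 (1.5%) reached 50% or more in at least one test.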
Toxoplasma: 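Assay of Toxoplasma gondii numbers, read through their beta-galactosidase reporter with a colour substrate. Concentration: 10 µM. The record gives no direction; the compounds picked for IC50 retests had high values, so higher reads as fewer parasites. Of about 67,000 compounds tested this way, about 260 (0.38%) reached 50% or more in at least one test.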

{"structure": "Cc1cc(CN2CCN(CC(O)c3cccc(F)c3)CC2)no1", "stereo": "stereo unspecified", "Leishmania in macrophages": 22.66, "Toxoplasma": 5.566}
{"structure": "Cc1ccc(NC(=O)CCC2CC2)cc1N1CCOC1=O", "T. brucei": -1.888, "Leishmania in macrophages": 21.68, "Toxoplasma": 6.603}
{"structure": "Cc1cc(C)n(CC2CCCN2C(=O)Cc2cn3ccccc3n2)n1", "stereo": "stereo unspecified", "T. brucei": -5, "Leishmania in macrophages": -4.24, "Toxoplasma": 7.778}
{"structure": "COCCNC(=O)c1cc(C)nc(C2CCN(C)CC2)n1", "Leishmania in macrophages": 31.48}
{"structure": "O=C(O)C(F)(F)F.[H][C@@]12CN(CC3CC3)CCO[C@]1([H])CN(C(=O)c1ccn(C)n1)C2", "T. brucei": -47.03, "Leishmania in macrophages": -13.44, "Toxoplasma": 5.492}
{"structure": "[H][C@]12CC[C@@]3(N=C(c4ccccc4)NC3=O)[C@@]1([H])CN(C(=O)COC)C2", "T. brucei": -10.37, "Leishmania in macrophages": 10.05, "Toxoplasma": 8}
{"structure": "CN1CCc2c(C#N)c(NCCc3ccccc3)n3cnnc3c2C1", "T. brucei": -9.663, "Leishmania in macrophages": "22.37 & 1.894", "Toxoplasma": -2.365}
{"structure": "Cc1ccc2c(n1)N(Cc1ccncc1)CCN(S(C)(=O)=O)C2.O=C(O)C(F)(F)F.O=C(O)C(F)(F)F", "T. brucei": -12.2, "Leishmania in macrophages": 21.77, "Toxoplasma": 1.824}
{"structure": "COCC1CC2(CCN(C(C)=O)CC2)CN1Cc1csc(C)n1.O=C(O)C(F)(F)F", "stereo": "stereo unspecified", "Leishmania in macrophages": 18.13, "Toxoplasma": -12.86}
{"structure": "COc1ccccc1CN(C)C(=O)CN1CC(n2nc(C)cc2C)C1", "T. brucei": 35.21, "Leishmania in macrophages": 72.41, "Toxoplasma": 12.33}
{"structure": "CC(=O)NC(Cc1c[nH]c2cc(F)ccc12)C(=O)Nc1nonc1C", "stereo": "stereo unspecified", "T. brucei": -95.98, "Leishmania in macrophages": -17.48, "Toxoplasma": 0.4315}
{"structure": "CN(C)C(=O)C1CCN(c2cncc(-n3cccn3)n2)CC1", "T. brucei": -99.94, "Leishmania in macrophages": -16.95, "Toxoplasma": -0.268}
{"structure": "Nc1cc(C(=O)N2CCOC(Cc3cccc(C(F)(F)F)c3)C2)ccn1", "stereo": "stereo unspecified", "T. brucei": -64.5, "Leishmania in macrophages": 33.44, "Toxoplasma": -3.493}
{"structure": "CCN1CCOCC12CCN(C(=O)C1CCCC1)CC2.O=C(O)C(F)(F)F", "T. brucei": 13.27, "Leishmania in macrophages": 18.31, "Toxoplasma": 2.776}
{"structure": "CC(=O)Nc1nc(CN2CCOC(Cn3nc(C)cc3C)C2)cs1", "stereo": "stereo unspecified", "Leishmania in macrophages": -11.53, "Toxoplasma": -5.187}
{"structure": "N[C@@H]1CC[C@H](C(=O)NCCc2nc(-c3ccccc3)cs2)C1", "T. brucei": -13.41, "Leishmania in macrophages": 4.845, "Toxoplasma": 4.891}
{"structure": "Cc1ncsc1C(=O)NC1CCN(CC(=O)NCc2ccccc2)CC1", "T. brucei": 57.29, "Leishmania in macrophages": 36.47, "Toxoplasma": 4.457}
{"structure": "O=C(O)C(F)(F)F.O=C1NC2(CCN(C(=O)N3CCOCC3)CC2)CC1c1cccnc1", "stereo": "stereo unspecified", "T. brucei": -17.56, "Leishmania in macrophages": 14.66, "Toxoplasma": -15.36}
{"structure": "O=C(O)C(F)(F)F.O=C(c1cccnc1)N1CCCC2(CCN(c3ccsc3)C2=O)C1", "stereo": "stereo unspecified", "T. brucei": -66.74, "Leishmania in macrophages": -9.313, "Toxoplasma": -1.996}
{"structure": "c1ccc(-c2nc3c(c(NCCCn4cncn4)n2)CCNCC3)nc1", "T. brucei": -28.04, "Leishmania in macrophages": -26.34, "Toxoplasma": -1.602}
{"structure": "O=C(c1cccc(O)n1)N1CCC(O)(CN2CCC(F)(F)CC2)C1", "stereo": "stereo unspecified", "Leishmania in macrophages": 18.48}
{"structure": "CCc1nnc2n1CCN(c1nc(C)cc(N(C)C)n1)C2", "T. brucei": -16.01, "Leishmania in macrophages": 16.54, "Toxoplasma": -7.067}
{"structure": "O=C(NC1CCC1)C1=NOC2(CCN(Cc3ccccc3)C2)C1", "stereo": "stereo unspecified", "T. brucei": 16.32, "Leishmania in macrophages": 18.41, "Toxoplasma": 4.697}
{"structure": "CC(C)=CCN1CC2(CCN(Cc3c(F)cccc3F)CC2)CC1=O", "T. brucei": 11.34, "Leishmania in macrophages": 5.645, "Toxoplasma": -10.05}
{"structure": "Clc1cccc(-c2nc(CNC3CCc4ncnn4C3)co2)c1", "stereo": "stereo unspecified", "T. brucei": -7.123, "Leishmania in macrophages": 15.97, "Toxoplasma": 15.18}
{"structure": "COc1ccccc1CN(C)C(=O)C[S+]([O-])Cc1cc(C)on1", "stereo": "stereo unspecified", "T. brucei": -20.06, "Leishmania in macrophages": -26.54, "Toxoplasma": 3.557}
{"structure": "Cc1nccn1[C@@H]1CC[C@@H](NC(=O)CCCn2cccn2)[C@H]1O", "T. brucei": -7.959, "Leishmania in macrophages": -31.84, "Toxoplasma": 2.335}
{"structure": "CCc1nccn1CCC(=O)N1CC[C@H](CO)[C@H](O)C1", "T. brucei": -21.57, "Leishmania in macrophages": -5.219, "Toxoplasma": -8.801}
{"structure": "[H][C@]12C[C@H](C(=O)NC)N(S(C)(=O)=O)[C@@]1([H])CN(C(=O)c1occc1C)C2", "T. brucei": -7.203, "Leishmania in macrophages": 21.01, "Toxoplasma": 10.23}
{"structure": "CCNC(=O)N(C)CCCc1n[nH]c(N)c1C#N", "T. brucei": 19.37, "Leishmania in macrophages": 36.89, "Toxoplasma": -5.298}
{"structure": "COc1cc2c(c(OC)c1OC)CCN(CCN1CCCCC1)CC2", "T. brucei": -20.4, "Leishmania in macrophages": 4.092, "Toxoplasma": 15.58}
{"structure": "CC(C)c1nc(-c2cc(C(=O)NCCN(C)C)c3ccccn23)cs1.O=C(O)C(F)(F)F", "Leishmania in macrophages": 74.71, "Toxoplasma": 7.555}

The first 2 entries again:

- Cc1cc(CN2CCN(CC(O)c3cccc(F)c3)CC2)no1 (stereo unspecified) : Leishmania in macrophages: 22.66%; Toxoplasma: 5.566%
- Cc1ccc(NC(=O)CCC2CC2)cc1N1CCOC1=O : T. brucei: -1.888%; Leishmania in macrophages: 21.68%; Toxoplasma: 6.603%